{"source": "PubChem BioAssay AID1259281 | Sanger Institute, 2017", "purpose": "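Find knock-downs that kill colorectal cancer cells alone or strengthen targeted drugs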 (primary screen)", "cell system": "human COLO678 colorectal cancer cell line", "reagents": "siRNA pool against human genes", "treatment": "anchor drugs at fixed doses: BYL719 1 µM, cetuximab 5 µg/ml or trametinib 10 nM; DMSO vehicle for the siRNA-alone arm", "measurement": "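Cell viability compared with non-targeting pool wells, averaged over replicates; knock-down-alone effect also as robust z-score; synergy scores set knock-down plus drug against expected joint effect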", "reading the numbers": "robust z-score, siRNA alone: higher = more viable cells; strongly negative means essential; viability, siRNA alone: higher = more surviving cells", "units": "viability, siRNA alone in fraction of control", "active means": "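Essential (knock-down alone) when the siRNA-alone robust z-score is below -3; otherwise no change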", "calls": "active = essential (knock-down alone); inactive = no change", "note": "The whole screen tested 794 reagents; below is a part drawn at random. Over the whole deposit, 22 (2.8%) got an active call. 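Calls rest on knock-down alone only; drug synergy scores play no part in them.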 Viability is capped at 1. Further read-outs or replicates are left out here. The record does not give: the amount of reagent, the time to read-out."}
{"target":"PRKD2 (protein kinase D2)","robust z-score, siRNA alone":0.473,"viability, siRNA alone":1,"Call":"inactive"}
{"target":"KIT (KIT proto-oncogene, receptor tyrosine kinase)","robust z-score, siRNA alone":0.473,"viability, siRNA alone":1,"Call":"inactive"}
{"target":"MAP2K6 (mitogen-activated protein kinase kinase 6)","robust z-score, siRNA alone":0.277,"viability, siRNA alone":0.994,"Call":"inactive"}
{"target":"MAPK8 (mitogen-activated protein kinase 8)","robust z-score, siRNA alone":0.473,"viability, siRNA alone":1,"Call":"inactive"}
{"target":"RPS6KA4 (ribosomal protein S6 kinase A4)","robust z-score, siRNA alone":0.473,"viability, siRNA alone":1,"Call":"inactive"}
{"target":"PTK6 (protein tyrosine kinase 6)","robust z-score, siRNA alone":0.473,"viability, siRNA alone":1,"Call":"inactive"}
{"target":"MECOM (MDS1 and EVI1 complex locus)","robust z-score, siRNA alone":0.473,"viability, siRNA alone":1,"Call":"inactive"}
{"target":"PRKAB2 (protein kinase AMP-activated non-catalytic subunit beta 2)","robust z-score, siRNA alone":0.473,"viability, siRNA alone":1,"Call":"inactive"}
{"target":"CDADC1 (cytidine and dCMP deaminase domain containing 1)","robust z-score, siRNA alone":0.473,"viability, siRNA alone":1,"Call":"inactive"}

2 entries already listed, sorted by “robust z-score, siRNA alone”, highest first.
{"target":"RPS6KA4 (ribosomal protein S6 kinase A4)","robust z-score, siRNA alone":0.473,"viability, siRNA alone":1,"Call":"inactive"}
{"target":"PTK6 (protein tyrosine kinase 6)","robust z-score, siRNA alone":0.473,"viability, siRNA alone":1,"Call":"inactive"}

Next reagents follow:
{"target":"FOXP1 (forkhead box P1)","robust z-score, siRNA alone":-3.89,"viability, siRNA alone":0.861,"Call":"active"}
{"target":"CSNK1A1L (casein kinase 1 alpha 1 like)","robust z-score, siRNA alone":0.473,"viability, siRNA alone":1,"Call":"inactive"}
{"target":"GOLGA5 (golgin A5)","robust z-score, siRNA alone":0.224,"viability, siRNA alone":0.992,"Call":"inactive"}
{"target":"JAK3 (Janus kinase 3)","robust z-score, siRNA alone":0.473,"viability, siRNA alone":1,"Call":"inactive"}
{"target":"NRBP2 (nuclear receptor binding protein 2)","robust z-score, siRNA alone":-0.0734,"viability, siRNA alone":0.983,"Call":"inactive"}
{"target":"DGKD (diacylglycerol kinase delta)","robust z-score, siRNA alone":-1.41,"viability, siRNA alone":0.94,"Call":"inactive"}
{"target":"PCBP1 (poly(rC) binding protein 1)","robust z-score, siRNA alone":0.473,"viability, siRNA alone":1,"Call":"inactive"}
{"target":"RIPK3 (receptor interacting serine/threonine kinase 3)","robust z-score, siRNA alone":-0.29,"viability, siRNA alone":0.976,"Call":"inactive"}
{"target":"FGFRL1 (fibroblast growth factor receptor like 1)","robust z-score, siRNA alone":0.473,"viability, siRNA alone":1,"Call":"inactive"}
{"target":"ZAP70 (zeta chain of T cell receptor associated protein kinase 70)","robust z-score, siRNA alone":-0.967,"viability, siRNA alone":0.954,"Call":"inactive"}
{"target":"ACVR1C (activin A receptor type 1C)","robust z-score, siRNA alone":0.473,"viability, siRNA alone":1,"Call":"inactive"}
{"target":"PIP5K1B (phosphatidylinositol-4-phosphate 5-kinase type 1 beta)","robust z-score, siRNA alone":0.473,"viability, siRNA alone":1,"Call":"inactive"}
{"target":"SRGAP3 (SLIT-ROBO Rho GTPase activating protein 3)","robust z-score, siRNA alone":0.473,"viability, siRNA alone":1,"Call":"inactive"}
{"target":"TLK1 (tousled like kinase 1)","robust z-score, siRNA alone":0.473,"viability, siRNA alone":1,"Call":"inactive"}
{"target":"BMP2K (BMP2 inducible kinase)","robust z-score, siRNA alone":0.259,"viability, siRNA alone":0.993,"Call":"inactive"}
{"target":"ULK2 (unc-51 like autophagy activating kinase 2)","robust z-score, siRNA alone":0.473,"viability, siRNA alone":1,"Call":"inactive"}
{"target":"PRKAG1 (protein kinase AMP-activated non-catalytic subunit gamma 1)","robust z-score, siRNA alone":0.473,"viability, siRNA alone":1,"Call":"inactive"}
{"target":"MAST1 (microtubule associated serine/threonine kinase 1)","robust z-score, siRNA alone":0.473,"viability, siRNA alone":1,"Call":"inactive"}
{"target":"CAMK1 (calcium/calmodulin dependent protein kinase I)","robust z-score, siRNA alone":0.473,"viability, siRNA alone":1,"Call":"inactive"}
